Assay [1] deals with recombinant mouse domain 1-3His6 of CI-M6PR (mouse) (UniProt Q07113). Put plainly: ELISA on coated mDom1-3His6.
In a further assay the target is T1, E148R.
T1 construct: also called human CI-M6PR Dom1-3His6 E148F
T1 chain: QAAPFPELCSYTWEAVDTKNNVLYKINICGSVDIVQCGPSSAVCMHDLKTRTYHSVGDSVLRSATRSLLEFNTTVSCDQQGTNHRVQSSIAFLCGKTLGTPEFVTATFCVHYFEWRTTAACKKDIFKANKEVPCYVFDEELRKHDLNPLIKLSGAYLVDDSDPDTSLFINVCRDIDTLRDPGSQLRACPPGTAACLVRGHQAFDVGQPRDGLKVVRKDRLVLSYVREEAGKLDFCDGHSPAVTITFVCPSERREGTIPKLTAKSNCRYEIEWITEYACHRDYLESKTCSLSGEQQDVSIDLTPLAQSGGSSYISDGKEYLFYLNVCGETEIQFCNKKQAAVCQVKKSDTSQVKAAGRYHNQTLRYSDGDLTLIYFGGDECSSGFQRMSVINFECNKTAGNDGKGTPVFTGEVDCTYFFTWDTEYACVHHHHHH
Put plainly: ELISA on coated antigen (100 ng; labelled E148R on the sheet, E148F in the text), anti-VHH-HRP, A450. The protocol: To determine the effect of site-directed mutations, an ELISA was performed. To this end, 100 ng of each successfully purified mutant was coated per well on Nunc Maxisorp plates in 50 mM MES, 150 mM NaCl, pH 6.5 buffer overnight at 4° C. […] Coating-only controls were included for background correction. […] Reactions were stopped after five minutes using a 2N H₂SO₄ solution and plates were read at 450 nm, with a 655 nm background correction. Data were analyzed using the GraphPad Prism 9 software.
A general note: In an ELISA, binding on a coated surface is turned into a signal by an enzyme label.

Protein sequences, listed by entry. Tags and fused reporters are not part of them. Lines headed by an entry give the natural chain unless they say otherwise; changes in a name come on top.
UniProt Q07113: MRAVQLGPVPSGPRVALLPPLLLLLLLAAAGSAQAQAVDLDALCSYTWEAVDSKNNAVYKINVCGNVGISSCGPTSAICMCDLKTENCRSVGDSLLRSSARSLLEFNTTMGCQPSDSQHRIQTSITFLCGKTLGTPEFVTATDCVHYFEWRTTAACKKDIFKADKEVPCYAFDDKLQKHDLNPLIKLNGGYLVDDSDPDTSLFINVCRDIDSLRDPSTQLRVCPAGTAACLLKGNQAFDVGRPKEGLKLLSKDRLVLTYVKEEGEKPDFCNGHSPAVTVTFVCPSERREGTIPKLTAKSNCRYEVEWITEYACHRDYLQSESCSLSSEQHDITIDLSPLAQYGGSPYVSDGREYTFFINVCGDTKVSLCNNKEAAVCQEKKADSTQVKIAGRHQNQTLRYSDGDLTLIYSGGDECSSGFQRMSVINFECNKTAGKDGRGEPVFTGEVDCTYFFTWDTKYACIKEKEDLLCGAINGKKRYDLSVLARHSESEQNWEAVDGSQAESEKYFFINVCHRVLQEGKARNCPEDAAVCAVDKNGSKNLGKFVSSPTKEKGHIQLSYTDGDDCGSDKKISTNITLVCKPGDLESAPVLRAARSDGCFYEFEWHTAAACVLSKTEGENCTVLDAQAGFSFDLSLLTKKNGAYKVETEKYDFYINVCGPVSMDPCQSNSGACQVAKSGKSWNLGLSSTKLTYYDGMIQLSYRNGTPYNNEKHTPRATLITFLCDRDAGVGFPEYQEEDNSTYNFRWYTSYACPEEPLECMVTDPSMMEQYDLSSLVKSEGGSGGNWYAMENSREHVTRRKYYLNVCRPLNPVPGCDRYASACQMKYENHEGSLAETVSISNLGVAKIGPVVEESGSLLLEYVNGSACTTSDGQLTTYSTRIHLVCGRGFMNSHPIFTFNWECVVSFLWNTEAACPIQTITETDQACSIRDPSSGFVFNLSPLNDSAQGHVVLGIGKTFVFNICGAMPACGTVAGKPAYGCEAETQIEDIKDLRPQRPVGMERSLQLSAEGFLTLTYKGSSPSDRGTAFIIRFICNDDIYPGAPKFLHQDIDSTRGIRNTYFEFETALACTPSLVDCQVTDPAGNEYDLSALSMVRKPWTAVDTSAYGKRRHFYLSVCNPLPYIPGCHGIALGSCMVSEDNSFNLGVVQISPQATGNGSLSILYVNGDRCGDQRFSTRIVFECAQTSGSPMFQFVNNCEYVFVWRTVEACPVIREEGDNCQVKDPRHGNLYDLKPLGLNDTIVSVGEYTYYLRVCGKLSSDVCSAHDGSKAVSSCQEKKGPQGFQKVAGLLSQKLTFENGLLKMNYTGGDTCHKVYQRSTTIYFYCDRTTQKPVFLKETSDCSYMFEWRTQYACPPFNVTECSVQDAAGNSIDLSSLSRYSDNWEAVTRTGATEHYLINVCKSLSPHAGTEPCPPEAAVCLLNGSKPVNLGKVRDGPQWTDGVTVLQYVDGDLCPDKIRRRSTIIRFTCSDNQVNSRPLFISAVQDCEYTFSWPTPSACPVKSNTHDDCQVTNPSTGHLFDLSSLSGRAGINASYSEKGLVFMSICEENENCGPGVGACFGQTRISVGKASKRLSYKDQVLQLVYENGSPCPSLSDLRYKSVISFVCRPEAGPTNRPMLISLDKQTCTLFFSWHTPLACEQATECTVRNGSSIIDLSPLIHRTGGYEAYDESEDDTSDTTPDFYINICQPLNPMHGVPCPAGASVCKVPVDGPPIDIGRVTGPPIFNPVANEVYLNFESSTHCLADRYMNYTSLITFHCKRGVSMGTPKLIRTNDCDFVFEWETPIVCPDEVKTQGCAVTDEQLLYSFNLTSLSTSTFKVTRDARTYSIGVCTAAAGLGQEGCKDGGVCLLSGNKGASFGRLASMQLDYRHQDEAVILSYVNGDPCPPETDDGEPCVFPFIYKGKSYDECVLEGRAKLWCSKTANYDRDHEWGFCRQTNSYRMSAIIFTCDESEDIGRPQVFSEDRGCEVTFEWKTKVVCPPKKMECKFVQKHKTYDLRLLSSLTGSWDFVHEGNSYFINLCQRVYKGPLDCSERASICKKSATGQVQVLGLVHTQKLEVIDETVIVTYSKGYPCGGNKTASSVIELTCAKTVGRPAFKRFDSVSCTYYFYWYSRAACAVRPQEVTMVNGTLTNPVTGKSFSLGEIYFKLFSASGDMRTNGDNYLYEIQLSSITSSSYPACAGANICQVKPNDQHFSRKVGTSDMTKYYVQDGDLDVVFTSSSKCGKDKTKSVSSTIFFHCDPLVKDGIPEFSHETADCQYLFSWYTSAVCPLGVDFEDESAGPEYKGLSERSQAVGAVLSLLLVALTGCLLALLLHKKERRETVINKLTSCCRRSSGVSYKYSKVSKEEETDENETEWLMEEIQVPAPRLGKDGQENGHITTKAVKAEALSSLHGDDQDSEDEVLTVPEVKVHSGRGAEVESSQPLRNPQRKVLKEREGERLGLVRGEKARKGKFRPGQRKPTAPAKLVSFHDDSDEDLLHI

The target in assay [2] is recombinant mouse domain 1-3His6 of CI-M6PR (mouse) (UniProt Q07113). Put plainly: ELISA: coated mouse CI-M6PR Domain 1-3His6, further purified antigen (FIGS. 2C-D), serially diluted VHH, Abs 450 nm; concentration axis has no printed unit.
Assay [3] concerns the target recombinant human domain 1-3His6 of the cation-independent mannose-6-phosphate receptor (human) (UniProt P11717). Put plainly: ELISA on coated hDom1-3His6.
The target is the same in assay [4]. The experiment in a line: ELISA: coated human CI-M6PR Domain 1-3His6, serially diluted VHH, anti-VHH-HRP, TMB, Abs 450 nm (replicate of FIG. 4A) [upper graph].
Assay [5] has the same target. The experiment in a line: ELISA: coated human CI-M6PR Domain 1-3His6, serially diluted VHH, anti-VHH-HRP, TMB, Abs 450 nm.

No constants are given. Whether binding was seen depends on the method and setting. Some entries that bind do so weakly or less than the wild type.

B1: anti-CI-M6PR VHH3 (VHH)
VHH: QVQLQESGGGLVQPGGSLRLSCAAFGLNFKNFDMIWFRQAPGEERDIVAAISSSSSTIWYEDSVKGRFTISRDNAKNTVYLQMNSLKPEDTAVYYCAAALTSWRRPDYWGQGTQVTVSS
notes: His6-tagged; made in Pichia pastoris
Take B1: the binding result in assay [1] was “binds”.

B2: anti-CI-M6PR VHH8 (VHH)
VHH: QVQLQESGGGLVQAGGSLRLSCEASGRTFNTYNWGWFRQAPGKEREFVAAIRWSSSKTSYADSVKGRFTISRDNAKNTIYLQMNSLKPEDTAVYYCAASIVDFTTNPSHFGSWGQGTQVTVSS
notes: His6-tagged (Pichia pastoris)
B2: the binding result (in the assay with E148R; in assay [1]; in assay [2]) was “binds” each time.

B3: anti-CI-M6PR VHH4 (VHH)
VHH: QVQLQESGGGLVQAGGSLRLSCAASGRTFSNYVMGWFRQAPGKEREFVGSISQGGKMTYYPDSVKGRFTISRDNAKNTMYLQMDGLKPEDTAVYYCAVSRGYPMVRVSEVDYWGQGTQVTVSS
notes: as for B1
Consider B3, for which the binding entry in assay [1] is “binds”.

B4: anti-CI-M6PR VHH11 (VHH)
VHH: QVQLQESGGGLVQAGDSLKLSCTASGPTFSEITGGWFRQVPGKEREFVASISSTGITTYYTDSVKGRFTVSRDNAKNTMYLQMNSLKPEDTGVYYCAARSTSRSIAITVGYDYWGQGTQVTVSS
notes: as for B1
Regarding B4, the binding result in assay [1] is “binds”.

B5: anti-CI-M6PR VHH1 (VHH)
VHH: QVQLQESGGGLVQPGGSLRLSCVASGFTFDRYWMNWLRQIPGKEIEWVSTINTGGTGTYYDDSVKGRFSISRDDAKNTLYLTMNSLKTEDTAVYYCARGATYYRGNSAIRGQGTQVTVSS
notes: His6-tagged; made in Pichia pastoris, later also in E. coli WK6
Consider B5, for which the binding entry in assay [1] and in assay [2] was “binds” throughout.

B6: anti-CI-M6PR VHH5 (VHH)
VHH: QVQLQESGGGLVQAGGSLKLSCAAAGRTFSRLAMGWFRQAPGKEREFVAAISENGDSIHYSDSVKGRFAVSRDNAKNTVYLQMNSLKPEDTAIYYCAADRAAYYCSGSGCYPSRAPAAASYDYWGQGTQVTVSS
notes: as for B5
Turning to B6, the binding entry (with E148R; in assay [1]; in assay [2]) was “binds” throughout.

B7: anti-CI-M6PR VHH7 (VHH)
VHH: QVQLQESGGGLVQPGGSLRLSCAASGIIFSDNRMDWYRQAPGKQREWVATLASYGWKTYADSVKGRFTISRDNTKNTVYLRMNSLKPEDTAVYYCKASSPVLNDIWGQGTQVTVSS
notes: His6-tagged (Pichia pastoris)
In the case of B7, the binding entry in assay [2] was “binds”.

B8: anti-CI-M6PR VHH2 (VHH)
VHH: QVQLQESGGGLVQPGGSLRLSCVFSGRTFMSYDVGWFRQAPGKERELLSSITSSSSSPYYAESVKGRFAVSRDGAKKTVYLRMNSLEPEDTAVYYCAARENWRNDWQYWGQTQVTVSS
notes: as for B1
Consider B8, for which the binding entry in assay [3], in assay [4], in assay [1] and in assay [5] was “binds” each time.

For the origin of these results see patent US20250263490A1 (VIB VZW, published 2025).
